No constants are given. Whether binding was seen depends on the method and setting.

The target of assay [1] is T1, …3 (Arabidopsis), O22456.
T1 chain: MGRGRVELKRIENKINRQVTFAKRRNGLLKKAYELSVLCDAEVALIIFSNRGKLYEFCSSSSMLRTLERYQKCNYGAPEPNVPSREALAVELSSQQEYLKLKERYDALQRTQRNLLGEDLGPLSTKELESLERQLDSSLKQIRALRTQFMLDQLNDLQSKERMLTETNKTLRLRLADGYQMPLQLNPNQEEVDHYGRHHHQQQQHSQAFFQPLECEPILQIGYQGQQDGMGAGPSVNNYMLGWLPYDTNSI
Description: two-hybrid; pGADT7 AD and pGBKT7 BD vectors co-transformed into yeast Y187; quantitative β-galactosidase assay with ONPG (Miller units). The settings on record: remark: other sources report otherwise.

Assay [2] deals with T1, …3 (Arabidopsis), O22456. Description: yeast three-hybrid; AD and BD vectors plus a third vector pTFT1 with SEP3 in yeast Y187; β-galactosidase with ONPG; Y2H reads subtracted from Y3H results. The following applies: remark: other sources report otherwise.

B1: …3, O22456 1-251 (protein)
chain: MGRGRVELKRIENKINRQVTFAKRRNGLLKKAYELSVLCDAEVALIIFSNRGKLYEFCSSSSMLRTLERYQKCNYGAPEPNVPSREALAVELSSQQEYLKLKERYDALQRTQRNLLGEDLGPLSTKELESLERQLDSSLKQIRALRTQFMLDQLNDLQSKERMLTETNKTLRLRLADGYQMPLQLNPNQEEVDHYGRHHHQQQQHSQAFFQPLECEPILQIGYQGQQDGMGAGPSVNNYMLGWLPYDTNSI
Take B1: the binding entry is “no binding” with …3 (Arabidopsis), O22456 [1] and “no binding” with …3 (Arabidopsis), O22456 [2].

(Values after PMC5364480.)
